Experimental data taken from paper doi:10.1101/2022.09.28.509878.
These are yes or no findings as the source states them, for the method shown.

Target: NT*-hCPEB3 (human) (UniProt Q8NE35)
Assay: native MS

B1: NT*-hCPEB3 (protein, UniProt Q8NE35 1-698)
chain: MQDDLLMDKSKTQPQPQQQQRQQQQPQPESSVSEAPSTPLSSETPKPEENSAVPALSPAAAPPAPNGPDKMQMESPLLPGLSFHQPPQQPPPPQEPAAPGASLSPSFGSTWSTGTTNAVEDSFFQGITPVNGTMLFQNFPHHVNPVFGGTFSPQIGLAQTQHHQQPPPPAPAPQPAQPAQPPQAQPPQQRRSPASPSQAPYAQRSAAAAYGHQPIMTSKPSSSSAVAAAAAAAAASSASSSWNTHQSVNAAWSAPSNPWGGLQAGRDPRRAVGVGVGVGVGVPSPLNPISPLKKPFSSNVIAPPKFPRAAPLTSKSWMEDNAFRTDNGNNLLPFQDRSRPYDTFNLHSLENSLMDMIRTDHEPLKGKHYPPSGPPMSFADIMWRNHFAGRMGINFHHPGTDNIMALNNAFLDDSHGDQALSSGLSSPTRCQNGERVERYSRKVFVGGLPPDIDEDEITASFRRFGPLVVDWPHKAESKSYFPPKGYAFLLFQEESSVQALIDACLEEDGKLYLCVSSPTIKDKPVQIRPWNLSDSDFVMDGSQPLDPRKTIFVGGVPRPLRAVELAMIMDRLYGGVCYAGIDTDPELKYPKGAGRVAFSNQQSYIAAISARFVQLQHNDIDKRVEVKPYVLDDQMCDECQGTRCGGKFAPFFCANVTCLQYYCEYCWASIHSRAGREFHKPLVKEGGDRPRHVPFRWS
binding: no binding (tested: 10 to 15 μM protein)
